# For some of these results: This list holds what a sample rich in hits left over. Inconclusive results are not listed. This is a selection; strong and weak results do not stand in their true shares. Calls of active or inactive are those of the source. Calls follow the shape of the dose curve; as a rule, active = well fitted inhibition curve with a large enough effect; inconclusive = small, poorly fitted or top-dose-only effect; inactive = flat fitted curve, though single readings scatter.
# Legend:
# Test in all cases: qHTS profiling for inhibitors of Plasmodium falciparum proliferation (AID 504749); also: nearly all actives have a fitted effect of over 60% in size;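 as to activity, negative = inhibition: 0% = DMSO vehicle and full inhibition = artemisinin control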
# C2A = settings: P. falciparum in erythrocytes, SYBR Green DNA, 72 h; at 28.7 µM (top of the series)
# Summary of the method: (§1)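 P. falciparum-infected erythrocytes (0.3% parasitemia, 2.5% hematocrit final) were exposed to compounds for 72 h at 37 C in 5% CO2, then lysed with SYBR Green buffer overnight at room temperature; parasite DNA fluorescence was normalized to artemisinin and DMSO controls.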
# CP185 = settings: P. falciparum in erythrocytes, SYBR Green DNA, 72 h; at 28.7 µM (top of the series)
# Summary of the method: as §1
# CP191 = settings: P. falciparum in erythrocytes, SYBR Green DNA, 72 h; at 28.7 µM (top of the series)
# Summary of the method: as §1
# CP192 = settings: P. falciparum in erythrocytes, SYBR Green DNA, 72 h
# Summary of the method: as §1
# CP217 = settings: P. falciparum in erythrocytes, SYBR Green DNA, 72 h; at 28.7 µM (top of the series)
# Summary of the method: as §1
# CP237 = settings: P. falciparum in erythrocytes, SYBR Green DNA, 72 h; at 28.7 µM (top of the series)
# Summary of the method: as §1
# CP238 = settings: P. falciparum in erythrocytes, SYBR Green DNA, 72 h; at 28.7 µM (top of the series)
# Summary of the method: as §1
# CP247 = settings: P. falciparum in erythrocytes, SYBR Green DNA, 72 h; at 28.7 µM (top of the series)
# Summary of the method: as §1
# CP250 = settings: P. falciparum in erythrocytes, SYBR Green DNA, 72 h; at 28.7 µM (top of the series)
# Summary of the method: as §1
# CP252 = settings: P. falciparum in erythrocytes, SYBR Green DNA, 72 h; at 28.7 µM (top of the series)
# Summary of the method: as §1
# Potency is read from the fitted curve at half-maximal effect.
smiles,measurement,setting,value
CC(C)(C)c1ccc(O)cc1,"activity, negative = inhibition",C2A,inactive: -8.23%
same,"activity, negative = inhibition",CP185,inactive: 2.73%
same,"activity, negative = inhibition",CP191,inactive: 1.2%
same,Potency,CP192,active: 12 µM
same,"activity, negative = inhibition",CP217,inactive: 8.43%
same,"activity, negative = inhibition",CP237,inactive: -1.84%
same,"activity, negative = inhibition",CP238,inactive: 3.98%
same,"activity, negative = inhibition",CP247,inactive: -8.92%
same,"activity, negative = inhibition",CP250,inactive: 5.4%
same,"activity, negative = inhibition",CP252,inactive: 2.48%

# From PubChem BioAssay (NCATS)
